Results as given in US20210299098A1, “SELECTIVE ESTROGEN RECEPTOR MODULATOR FOR TREATMENT OF PANCREATIC CANCER” (CIPLA LIMITED, priority 2020, published 2021).

Legend:
Assay type in all cases: cell-based
[1] = tested on: SW1990 pancreatic cancer cell line; assay: CellTiter-Blue cell viability assay, SW1990; conditions: Homo sapiens, 96 hours treatment
Experimental: (§1) The in vitro anti-tumor activity of levormeloxifene or its pharmaceutically acceptable salt was evaluated in six human pancreatic cancer cell lines: AsPc 1 (A), BxPC3 (B), Miapaca2 (C), Panc 10.05 (D), SW1990 (E) and Panc 1 (F). AsPc 1 (A), BxPC3 (B), Miapaca2 (C), Panc 10.05 (D), SW1990 (E) and Panc 1 (F) were established at Oncotest from the corresponding human patient derived xenograft. CAPAN-2, HUP-T3 and PA-TU-8902 were purchased from DSMZ (Braunschweig, Germany). PANC-1 was purchased from CLS Cell Line Services GmbH (Eppelheim, Germany). BxPC-3, HPAC and MIA-Pa-Ca-2 were purchased from ATCC (Rockville, Md., USA). Authenticity of cell lines was confirmed at the DSMZ by STR (short tandem repeat) analysis, a PCR based DNA-fingerprinting methodology. Cell lines were routinely passaged once or twice weekly and maintained in culture for up to 20 passages. […] Briefly, cells were harvested from exponential phase cultures, counted and plated in 96-well flat-bottom microtiter plates at a cell density of 6,000-20,000 cells/well depending on the cell line's growth rate. […] Following an incubation period of up to four hours, fluorescence (FU) was measured by using the Enspire Multimode Plate Reader (excitation λ=531 nm, emission λ=615 nm). […]

[2] = tested on: Miapaca2 pancreatic cancer cell line; assay: CellTiter-Blue cell viability assay, Miapaca2; conditions: Homo sapiens, MIA PaCa-2; Miapaca1 cell line as printed; 96 hours treatment
Experimental: as §1

[3] = tested on: AsPc 1 pancreatic cancer cell line; assay: CellTiter-Blue cell viability assay, AsPC1; conditions: Homo sapiens, 96 hours treatment
Experimental: as §1

IC50 [1]: 23 µM
IC50 [2]: 23 µM
IC50 [3]: 15 µM
Structure (SMILES): CC/C(=C(\c1ccccc1)c1ccc(OCCN(C)C)cc1)c1ccccc1 [TAM, tamoxifen, reference compound]
